Assay results reported in article doi:10.1101/2025.09.18.677151.
These are yes or no findings as the source states them, for the method shown. For some assays here: Binding calls can cover weak binding; strength is not graded here. For some assays here: Where a sequence is shown, tags or fusion partners need not be part of it. Values belong to the binder of their own block, whether it stands above or below them.

Columns and labels:
[1] = target: N. salsuginis TatBC complex (Nitratifractor salsuginis); assay: cryo-EM structure
[2] = target: N. salsuginis TatAC complex (TatA-His6, TatC-strep) (Nitratifractor salsuginis); assay: pull-down

binding [1]: binds
Binder: MQRRDFLKYSVALGVASALPLWSRAVFA (peptide, UniProt P36649 1-28) [CueO signal peptide (residues 1-28)]

binding [2]: no binding
B1: E. coli MdoD, full length, Myc tagged (protein, UniProt P40120 33-551)
chain: ADSDIADGQTQRFDFSILQSMAHDLAQTAWRGAPRPLPDTLATMTPQAYNSIQYDAEKSLWHNVENRQLDAQFFHMGMGFRRRVRMFSVDPATHLAREIHFRPELFKYNDAGVDTKQLEGQSDLGFAGFRVFKAPELARRDVVSFLGASYFRAVDDTYQYGLSARGLAIDTYTDSKEEFPDFTAFWFDTVKPGATTFTVYALLDSASITGAYKFTIHCEKSQVIMDVENHLYARKDIKQLGIAPMTSMFSCGTNERRMCDTIHPQIHDSDRLSMWRGNGEWICRPLNNPQKLQFNAYTDNNPKGFGLLQLDRDFSHYQDIMGWYNKRPSLWVEPRNKWGKGTIGLMEIPTTGETLDNIVCFWQPEKAVKAGDEFAFQYRLYWSAQPPVHCPLARVMATRTGMGGFSEGWAPGEHYPEKWARRFAVDFVGGDLKAAAPKGIEPVITLSSGEAKQIEILYIEPIDGYRIQFDWYPTSDSTDPVDMRMYLRCQGDAISETWLYQYFPPAPDKRQYVDDRVMS
